{"sequences": {"note": "Amino acid sequences for entries named in this document (tags omitted).", "UniProt Q13547": "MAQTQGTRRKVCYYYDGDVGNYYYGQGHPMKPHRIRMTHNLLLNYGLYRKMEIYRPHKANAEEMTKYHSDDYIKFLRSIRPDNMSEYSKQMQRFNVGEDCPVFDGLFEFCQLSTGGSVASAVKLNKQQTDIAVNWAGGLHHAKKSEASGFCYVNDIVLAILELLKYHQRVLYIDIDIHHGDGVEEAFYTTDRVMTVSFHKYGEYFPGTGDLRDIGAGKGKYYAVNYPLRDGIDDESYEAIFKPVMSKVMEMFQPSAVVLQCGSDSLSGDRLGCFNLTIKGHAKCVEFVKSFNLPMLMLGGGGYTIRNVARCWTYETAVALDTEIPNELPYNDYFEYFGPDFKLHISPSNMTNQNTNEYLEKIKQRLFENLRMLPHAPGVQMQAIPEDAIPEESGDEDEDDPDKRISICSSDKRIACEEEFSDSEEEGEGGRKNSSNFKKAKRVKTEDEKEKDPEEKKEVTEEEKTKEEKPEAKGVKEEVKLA", "UniProt Q92769": "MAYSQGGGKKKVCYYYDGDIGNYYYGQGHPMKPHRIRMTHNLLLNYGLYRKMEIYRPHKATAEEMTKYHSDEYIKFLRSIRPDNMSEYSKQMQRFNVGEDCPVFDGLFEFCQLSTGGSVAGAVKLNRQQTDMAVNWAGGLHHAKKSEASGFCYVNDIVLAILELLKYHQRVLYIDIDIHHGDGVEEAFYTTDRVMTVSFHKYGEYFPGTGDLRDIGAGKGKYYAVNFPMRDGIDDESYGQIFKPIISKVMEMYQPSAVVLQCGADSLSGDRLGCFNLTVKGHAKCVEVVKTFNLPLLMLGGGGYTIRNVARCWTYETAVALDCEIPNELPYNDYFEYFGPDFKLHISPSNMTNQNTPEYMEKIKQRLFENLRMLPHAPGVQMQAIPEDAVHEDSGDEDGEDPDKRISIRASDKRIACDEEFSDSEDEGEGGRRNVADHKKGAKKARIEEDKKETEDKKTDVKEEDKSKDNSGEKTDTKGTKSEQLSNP", "UniProt O75151": "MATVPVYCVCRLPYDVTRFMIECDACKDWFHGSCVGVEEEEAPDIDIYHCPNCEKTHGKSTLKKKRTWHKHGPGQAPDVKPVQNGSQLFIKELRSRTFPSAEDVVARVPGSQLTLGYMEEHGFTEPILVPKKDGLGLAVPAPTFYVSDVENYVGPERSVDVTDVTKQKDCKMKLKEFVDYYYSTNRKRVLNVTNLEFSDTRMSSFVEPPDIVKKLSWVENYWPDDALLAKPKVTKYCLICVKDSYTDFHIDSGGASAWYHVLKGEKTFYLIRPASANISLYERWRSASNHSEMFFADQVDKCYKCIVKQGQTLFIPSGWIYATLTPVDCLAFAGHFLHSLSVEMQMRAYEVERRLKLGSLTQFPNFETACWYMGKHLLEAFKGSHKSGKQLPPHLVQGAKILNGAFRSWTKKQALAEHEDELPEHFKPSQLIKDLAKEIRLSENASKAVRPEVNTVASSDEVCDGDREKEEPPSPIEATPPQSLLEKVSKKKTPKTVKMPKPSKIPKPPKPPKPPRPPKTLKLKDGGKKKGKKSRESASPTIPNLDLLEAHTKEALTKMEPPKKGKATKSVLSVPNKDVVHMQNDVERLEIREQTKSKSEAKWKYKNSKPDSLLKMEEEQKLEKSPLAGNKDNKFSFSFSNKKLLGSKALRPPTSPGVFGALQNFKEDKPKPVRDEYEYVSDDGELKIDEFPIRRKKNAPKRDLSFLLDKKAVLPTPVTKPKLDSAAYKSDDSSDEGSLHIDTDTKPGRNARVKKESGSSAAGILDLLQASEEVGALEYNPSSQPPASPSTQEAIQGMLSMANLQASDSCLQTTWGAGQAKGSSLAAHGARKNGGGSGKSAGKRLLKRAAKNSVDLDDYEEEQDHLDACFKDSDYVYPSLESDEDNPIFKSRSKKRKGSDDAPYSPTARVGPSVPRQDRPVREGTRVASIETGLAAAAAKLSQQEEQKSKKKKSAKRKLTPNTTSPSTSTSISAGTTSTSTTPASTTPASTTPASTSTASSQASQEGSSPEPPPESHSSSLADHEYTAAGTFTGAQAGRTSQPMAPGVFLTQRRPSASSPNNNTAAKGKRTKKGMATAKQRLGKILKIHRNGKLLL"}, "source": "paper PMC13284713", "note": "No constants are given. Whether binding was seen depends on the method and setting. In cells and extracts the contact can be indirect. These calls come from enrichment with a bait or labelling near it, and not all partners need be listed. A no says only that the protein was not detected with the bait. Where a sequence is shown, tags or fusion partners need not be part of it."}
{"biological_target": "T1, FLAG-AviTag-tagged murine ARID5B (long isoform) (murine) (UniProt Q8BM75)", "T1 sequence (chain, biotin on the AviTag (by BirA))": "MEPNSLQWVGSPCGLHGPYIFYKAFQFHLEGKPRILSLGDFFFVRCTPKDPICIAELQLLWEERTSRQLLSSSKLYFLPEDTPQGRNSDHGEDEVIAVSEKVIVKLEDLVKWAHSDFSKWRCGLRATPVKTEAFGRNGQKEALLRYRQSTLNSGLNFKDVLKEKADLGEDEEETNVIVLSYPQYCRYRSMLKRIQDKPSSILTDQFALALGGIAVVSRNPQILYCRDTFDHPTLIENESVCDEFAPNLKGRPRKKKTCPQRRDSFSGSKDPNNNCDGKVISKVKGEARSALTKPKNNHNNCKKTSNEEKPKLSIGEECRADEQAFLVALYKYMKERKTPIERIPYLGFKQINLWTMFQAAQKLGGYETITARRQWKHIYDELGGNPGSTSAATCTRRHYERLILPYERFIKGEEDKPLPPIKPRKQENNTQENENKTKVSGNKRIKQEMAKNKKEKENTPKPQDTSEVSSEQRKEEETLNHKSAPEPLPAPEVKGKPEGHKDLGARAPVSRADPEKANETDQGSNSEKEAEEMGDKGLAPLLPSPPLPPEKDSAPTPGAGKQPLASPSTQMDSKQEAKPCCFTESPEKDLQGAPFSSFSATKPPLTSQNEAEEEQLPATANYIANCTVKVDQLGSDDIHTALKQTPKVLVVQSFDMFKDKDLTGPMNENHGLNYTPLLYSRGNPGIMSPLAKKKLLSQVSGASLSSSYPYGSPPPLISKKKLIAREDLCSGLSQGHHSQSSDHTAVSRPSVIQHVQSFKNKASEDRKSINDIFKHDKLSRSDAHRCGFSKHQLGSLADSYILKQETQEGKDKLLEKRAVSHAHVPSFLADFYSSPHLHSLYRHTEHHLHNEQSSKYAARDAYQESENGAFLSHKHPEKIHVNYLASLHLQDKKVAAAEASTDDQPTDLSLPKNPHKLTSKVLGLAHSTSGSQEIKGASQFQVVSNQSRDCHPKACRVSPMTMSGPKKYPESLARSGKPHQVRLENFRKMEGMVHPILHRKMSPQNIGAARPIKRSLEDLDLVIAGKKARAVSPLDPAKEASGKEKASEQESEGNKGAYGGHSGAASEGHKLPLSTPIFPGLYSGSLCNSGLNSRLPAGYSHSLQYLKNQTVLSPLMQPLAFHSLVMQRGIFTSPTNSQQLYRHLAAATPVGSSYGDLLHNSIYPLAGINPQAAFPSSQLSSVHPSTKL", "test": "affinity purification with mass spectrometry; biotinylated FLAG-AviTag ARID5B captured on streptavidin beads from 5 mg HEK293T nuclear extract; IP350 buffer (20 mM Tris-HCl pH 7.5, 0.3% NP-40, 350 mM NaCl), overnight at 4°C; control: cells expressing BirA only; n = 3"}
{"substance": "HDAC1 (from UniProt Q13547 1-482) (enzyme)", "binding": "binds"}
{"substance": "HDAC2 (from UniProt Q92769 1-488) (enzyme)", "binding": "binds"}
{"substance": "PHF2 (from UniProt O75151 1-1096) (enzyme)", "binding": "no binding"}
